Measurements reported in PubChem BioAssay AID720505 (Drosophila RNAi Screening Center, 2013).
Aim: 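Fly regulators or components of the CRAC channel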 (primary screen). Cell system: Drosophila S2R+ cells. Reagents: long dsRNA against Drosophila genes. Conditions: thapsigargin (2 µM) in calcium-free buffer to empty internal stores, then 2 mM calcium added back. Detection: 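Fluo-4 signal in 384-well plates read on a FLIPR after thapsigargin (2 µM, calcium-free) store depletion and 2 mM calcium add-back; unnormalised mean endpoint per well; screen run twice, selected wells retested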. Direction: calcium signal and retest calcium signal: higher = more calcium entry after store depletion. Rule for the call: 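Knock-downs counted as hits when calcium entry dropped relative to STIM1 positive and Rho1 negative controls present on each plate; roughly 1500 genes called, with reductions of differing size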. Meaning of the calls: active = called as lowering calcium entry; inactive = not called.
In all, the deposit lists about 20,000 reagents; this is a random part of those that have a named target and a result. Of all reagents, about 2,100 (10%) are marked active. 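Raw plate signals without normalisation; calls rest on control-based scores that were not deposited; replicate 2 separates called from uncalled poorly.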 A number with no mark means an inactive call. A plus sign joins genes that one reagent is predicted to hit. Reagent sequences are not shown. Not given: the amount of reagent, the time to read-out.

| predicted target | dsRNA | calcium signal, replicate 1 | calcium signal, replicate 2 | retest calcium signal, replicate 1 | retest calcium signal, replicate 2 |
| --- | --- | --- | --- | --- | --- |
| CG42792 | DRSC01515 | 159 | 131 | – | – |
| VepD | DRSC22318 | 95.6 | 233 | – | – |
| CG6254 | DRSC16002 | 102 | 141 | – | – |
| CG4496 | DRSC02753 | 138 | 105 | – | – |
| Oxp | DRSC06712 | 133 | 155 | – | – |
| mRpL49 | DRSC19908 | 126 | 106 | – | – |
| Trs33 | DRSC15990 | 114 | 166 | – | – |
| CG8323 | DRSC07149 | 71.2 | 146 | – | – |
| lmd | DRSC15618 | 147 | 249 | – | – |
| Cul5 | DRSC14723 | 186 | 119 | – | – |
| PGRP-SB2 | DRSC11092 | 105 | 184 | – | – |
| CG9254 | DRSC01969 | 87.9 | 144 | – | – |
| Cul2 | DRSC03710 | 145 | 122 | – | – |
| Rnf146 | DRSC11045 | 81.7 | 156 | – | – |
| NP15.6 | DRSC16756 | 89.8 (active) | 115 | – | – |
| Ir7d | DRSC18010 | 54.8 (active) | 297 | – | – |
| CG15549 | DRSC15087 | 165 | 158 | – | – |
| mthl9 | DRSC08506 | 81.3 | 64.5 | – | – |
| jar | DRSC16974 | 152 | 173 | – | – |
| Phyhd1 | DRSC14911 | 165 | 89.3 | – | – |
| CG4306 | DRSC10409 | 93 | 140 | – | – |
| CG3277 | DRSC00588 | 108 | 100 | – | – |
| Sry-alpha | DRSC16867 | 108 | 121 | 6597 | 124 |
| Ir48a | DRSC05301 | 87.8 | 95.8 | – | – |
| CG11601 | DRSC00318 | 179 | 139 | – | – |
| Ccdc58 | DRSC10218 | 99.4 | 77.2 | – | – |
| CG30344 | DRSC22510 | 83.4 | 153 | – | – |
| CG42372 + CG30100 | DRSC05602 | 55.7 (active) | 91.1 | – | – |
| Abp1 | DRSC09693 | 58.1 (active) | 119 | – | – |
| Sgt | DRSC02812 | 108 | 116 | – | – |
| CG13875 | DRSC08345 | 106 | 98.3 | – | – |
| CG12725 | DRSC19501 | 127 | 93.5 | – | – |
| CG8646 | DRSC07230 | 98.9 | 155 | – | – |
| Vha14-1 | DRSC07571 | 85.6 | 162 | – | – |
| CG18764 | DRSC15391 | 176 | 93.4 | – | – |
| Rai1 | DRSC20157 | 76 | 142 | – | – |
| CG11771 | DRSC14379 | 225 | 237 | – | – |
| CG13793 | DRSC02297 | 122 | 95.3 | – | – |
| CG18675 | DRSC08536 | 79.5 | 75 | – | – |
| CG13994 | DRSC02326 | 152 | 107 | – | – |
| Ance | DRSC01865 | 115 | 131 | – | – |
| CG42594 | DRSC18053 | 186 | 86.8 | – | – |
| CG42594 | DRSC18408 | 222 | 87.7 | – | – |
| CG42594 | DRSC22978 | 121 | 86.1 | – | – |
| Cpr47Ec | DRSC07332 | 72.4 | 163 | – | – |
| CG5611 | DRSC15843 | 99.6 | 84.6 | – | – |
| Mtpalpha | DRSC01994 | 90.3 | 101 | – | – |
| CG11588 | DRSC09846 | 68.3 | 64.5 | – | – |
| ena | DRSC05779 | 124 | 115 | – | – |
| ena | DRSC07610 | 94.7 | 131 | – | – |
| Acox57D-d | DRSC04561 | 166 | 93.8 | – | – |
| Ublcp1 | DRSC14149 | 172 | 321 | – | – |
| CG43101 | DRSC05520 | 82.3 | 120 | – | – |
| Sos | DRSC03439 | 132 | 148 | – | – |
| CG18745 | DRSC15382 | 109 | 161 | – | – |
| CG31730 | DRSC01308 | 183 | 103 | – | – |

An excerpt from the list above, for reference:
| predicted target | dsRNA | calcium signal, replicate 1 | calcium signal, replicate 2 | retest calcium signal, replicate 1 | retest calcium signal, replicate 2 |
| --- | --- | --- | --- | --- | --- |
| Cul5 | DRSC14723 | 186 | 119 | – | – |
| PGRP-SB2 | DRSC11092 | 105 | 184 | – | – |
| CG9254 | DRSC01969 | 87.9 | 144 | – | – |
| Cul2 | DRSC03710 | 145 | 122 | – | – |
| Rnf146 | DRSC11045 | 81.7 | 156 | – | – |
